# PubChem BioAssay AID540276 (National Center for Advancing Translational Sciences (NCATS), 2011)
# In all, about 300,000 compounds went through this assay and about 5,400 (1.8%) were called active. The inconclusive results got no clear call from the source; some entries with a clear call stand among them for comparison. Calls follow the shape of the full dose curve; tested in HEK293 cells. A potency beside an inconclusive call is a rough fit, not a confirmed value.
# Assay: qHTS for inhibitors of binding or entry into cells for Marburg Virus
# Conditions: Marburg virus pseudotyped entry inhibition, cell reporter; series mostly up to 37.8 µM
# Potency is read from the fitted curve at half-maximal effect.
row,SMILES,Potency
1,CCC(=NCCc1c(C)[nH]c2ccc(C)cc12)C1=C(O)CC(c2ccccc2)CC1=O (configuration not stated),"inconclusive: 25.1 µM [inhibitor, partial curve, poor fit]"
2,CC(C)=CCC/C(C)=C/CCC(C)NCCN1CCNCC1 (configuration not stated),inactive
3,Cn1nnc2cc(C(=O)N3CCN(c4ccccc4)CC3)ccc21,"inconclusive: 3.16 µM [activator, single point]"
4,Cc1ccc(SCC(=O)Nc2ccc(N3CCN(C)CC3)c(F)c2)cc1,inactive
5,NC(=S)NN=C1CCCC(C(F)(F)F)C1 (configuration not stated),inactive
6,CNC(=S)N/N=C(\C)c1ccc(-n2ccnc2)cc1,inactive
7,CN(Cc1ccccc1N1CCCC1)C(=O)c1cc2ccccc2o1,"inconclusive: 10 µM [inhibitor, partial curve, poor fit]"
8,COc1ccc(OC)c(Nc2ncnc3c2cnn3-c2cccc(C)c2)c1,"inconclusive: 4.11 µM [inhibitor, full curve, poor fit]"
9,COc1ccc(CCNC(=O)CCc2c(C)nc3cc(-c4ccc(Cl)cc4)nn3c2C)c(OC)c1,inactive
10,Cc1nnc(SCC(=O)NCC2COc3ccccc3O2)s1 (configuration not stated),inactive
11,CCC(=O)c1ccc(Oc2ccc(C(=O)c3ccc(C)cc3)cc2[N+](=O)[O-])cc1,"inconclusive: 0.398 µM [inhibitor, full curve, poor fit]"
12,Cc1cccc(C)c1NC(=O)CSCC(=O)O,inactive
13,CCOC(=O)c1cnc(SCc2nc(N)nc(Nc3ccc(C)cc3)n2)nc1N,inactive
14,Cc1nc(-c2cccc(C(F)(F)F)c2)sc1C(=O)O,"inconclusive: 14.1 µM [activator, partial curve, poor fit]"
15,CN(C)c1ccc(NC(=O)c2cn(-c3ccccc3)nc2-c2cccs2)cc1,"inconclusive: 0.259 µM [activator, full curve, poor fit]"
16,CCN(CC)S(=O)(=O)c1cc(OC)c(C)cc1C,inactive
17,O=c1c2[nH]c3ccc(F)cc3c2nc2n1CCS2,"inconclusive: 3.98 µM [inhibitor, partial curve, poor fit]"
18,CCOC(=O)c1c(C)[nH]c(C(=O)OCC(=O)N2c3ccccc3CC2C)c1C (configuration not stated),"inconclusive: 22.4 µM [inhibitor, single point]"
19,NC(=O)C(c1ccc(Br)cc1)c1ccc(C(=O)c2ccccc2)cc1 (configuration not stated),"inconclusive: 12.6 µM [inhibitor, partial curve, poor fit]"
20,CCCCNC(=O)CCC(=O)Nc1ccc2nc(N3CCOCC3)cc(C)c2c1,inactive
21,CC1CCN(c2oc(-c3ccccc3Cl)nc2C#N)CC1,inactive
22,Cc1nn(C)c(Cl)c1CN1CCCC(C(=O)Nc2cccc(-n3cccn3)c2)C1 (configuration not stated),"inconclusive: 10 µM [inhibitor, partial curve]"
23,O=C(COc1ccc2ccc(=O)oc2c1)NC1CCCCC1,"inconclusive: 1.58 µM [activator, partial curve, poor fit]"
24,FC(F)(F)COc1nc(N2CCCCC2)nc(N2CCNCC2)n1,"inconclusive: 5.62 µM [inhibitor, partial curve, poor fit]"

# Part of the list above, reformatted.
row	SMILES	Potency
5	NC(=S)NN=C1CCCC(C(F)(F)F)C1 (configuration not stated)	inactive
15	CN(C)c1ccc(NC(=O)c2cn(-c3ccccc3)nc2-c2cccs2)cc1	inconclusive: 0.259 µM [activator, full curve, poor fit]
17	O=c1c2[nH]c3ccc(F)cc3c2nc2n1CCS2	inconclusive: 3.98 µM [inhibitor, partial curve, poor fit]
22	Cc1nn(C)c(Cl)c1CN1CCCC(C(=O)Nc2cccc(-n3cccn3)c2)C1 (configuration not stated)	inconclusive: 10 µM [inhibitor, partial curve]

# The listing continues.

row,SMILES,Potency
1,Cc1ccc(CSCCNC(=O)CN(c2cc(C)ccc2C)S(C)(=O)=O)cc1,"inconclusive: 10 µM [inhibitor, partial curve, poor fit]"
2,O=C(N/N=C/C(Br)=C\c1ccccc1)c1ccc2nc[nH]c2c1,"inconclusive: 20.6 µM [inhibitor, single point]"
3,C/C(N)=C(/C#N)C(=O)CSc1ccc2c(c1)OCCO2,"inconclusive: 6.31 µM [activator, single point]"
4,COC(=O)c1ccc(C(=O)OC)c(NC(=O)C2CC2)c1,"inconclusive: 0.398 µM [activator, full curve, poor fit]"
5,CCc1ccc(OCCCC(=O)NCc2ccccc2)cc1,"inconclusive: 25.9 µM [inhibitor, single point]"
6,CN1CCN(CCCNC(=O)C2CC(=O)N(C3CCCCC3)C2)CC1 (configuration not stated),inactive
7,O=C(O)C1CCCCC1C(=O)Nc1ccc(-c2ccccc2)cc1 (configuration not stated),inactive
8,CN1CCN(C(=S)SCC(=O)Nc2ccc(Cl)cc2C(=O)c2ccccc2)CC1,"inconclusive: 18.4 µM [inhibitor, partial curve, poor fit]"
9,CCCCOc1ccccc1NC(=O)CC1Sc2ccccc2NC1=O (configuration not stated),inactive
10,CCC(C)c1ccc(NC(=O)N2CCOCC2)cc1 (configuration not stated),inactive
11,O=C(Nc1ccsc1C(=O)O)c1cccc(Oc2ccccc2)c1,"inconclusive: 1.12 µM [inhibitor, full curve, poor fit]"
12,CSc1nc(NC(C)C)nc(NC(C)C)n1,inactive
13,CCOc1ccc(NC(=S)NC2CC3CCC(C2)N3Cc2ccco2)cc1 (configuration not stated),"inconclusive: 3.55 µM [inhibitor, partial curve, poor fit]"
14,CCCNC(=O)NC(=O)CSc1ccc(C)cc1C,"inconclusive: 17.8 µM [inhibitor, single point]"
15,C(=N\Nc1nc(Nc2ccccc2)nc(N2CCOCC2)n1)/c1c[nH]c2ccccc12,active: 0.073 µM
16,O=C(NCCc1ccccn1)c1ccc(OC(F)F)cc1,"inconclusive: 31.6 µM [inhibitor, single point]"
17,C/C(=C\C(=O)c1ccccc1)NCc1ccc(F)cc1,inactive
18,COc1ccc2oc(C(=O)OCC(=O)N3CCN(C(C)=O)CC3)c(C)c2c1,"inconclusive: 2.24 µM [inhibitor, partial curve, poor fit]"
19,Oc1ccc(/C=N/Nc2cc(N3CCOCC3)nc(N3CCOCC3)n2)cc1,active: 6.51 µM
20,Cn1c(SCC(=O)NCc2ccco2)nnc1-c1ccc(S(=O)(=O)N2CCOCC2)cc1,inactive
21,CCN(CC)C(=O)CSc1nc2c(c(=O)n(C)c(=O)n2C)n1Cc1ccccc1,"inconclusive: 3.55 µM [inhibitor, partial curve, poor fit]"
22,CCOC(=O)c1c(NC(=O)C(C)N2CCN(S(=O)(=O)c3cccs3)CC2)sc2c1CCC(C)C2 (configuration not stated),"inconclusive: 29.1 µM [inhibitor, single point]"
23,Cc1ccc(CNC(=O)c2ccc3nc4[nH]c5ccccc5c4nc3c2)cc1,inactive
24,COc1ccc(/C=C2/SC(=S)N(CCCC(=O)Nc3cccc(O)c3)C2=O)cc1,active: 7.94 µM

row,SMILES,Potency
1,CCC(C(=O)Nc1ccon1)c1ccccc1 (configuration not stated),"inconclusive: 12.6 µM [inhibitor, partial curve, poor fit]"
2,Cn1nc(-c2ccc(OCC(N)=O)cc2)c2ccccc2c1=O,"inconclusive: 0.092 µM [inhibitor, full curve, poor fit]"
3,O=C(C1CCC(C(=O)N2CCCCC2)CC1)N1CCCCC1 (configuration not stated),"inconclusive: 0.112 µM [activator, full curve, poor fit]"
4,COC(=O)c1c(NC(=O)CSc2nncs2)sc2c1CCCCC2,"inconclusive: 16.4 µM [inhibitor, single point]"
5,COc1cc(OC)cc(C(=O)Nc2ccccc2-c2nnn(CC(=O)Nc3cc(C)on3)n2)c1,inactive
6,CCOCCn1ccc2c(OCC(=O)Nc3ccc(OC)c(OC)c3)cccc2c1=O,"inconclusive: 25.1 µM [inhibitor, single point]"
7,N#Cc1c(-c2ccccc2)ccn(Cc2cccc(Cl)c2)c1=O,inactive
8,COc1ccc(-c2ccc(CNCCCN3CCOCC3)o2)cc1Cl,"inconclusive: 7.94 µM [inhibitor, partial curve, poor fit]"
9,O=C(CCc1ccc(S(=O)(=O)NCc2ccccc2)cc1)NCc1ccc2c(c1)OCO2,inactive
10,COCCOC(=O)c1c(N)n(CCCN2CCOCC2)c2nc3ccccc3nc12,inactive
11,CCCn1c(=O)c(C(=O)NNC(=O)c2ccccc2Cl)c(O)c2ccccc21,"inconclusive: 14.1 µM [inhibitor, single point]"
12,C=CCSc1nnc2c(n1)OC(c1cccnc1)N(C(C)=O)c1ccccc1-2 (configuration not stated),inactive
13,CCOC(=O)N1CCC(Nc2c(-c3ccccc3)c(=O)c2=O)CC1,inactive
14,Cc1cccc(N(CC(=O)NC2CCCC2)C(=O)CCCC(=O)Nc2ccccn2)c1,inactive
15,Cc1cccc(C(C(N)=O)c2ncc(C(F)(F)F)cc2Cl)c1 (configuration not stated),"inconclusive: 7.94 µM [inhibitor, partial curve, poor fit]"
16,O=C1c2ccc([N+](=O)[O-])cc2S(=O)(=O)N1Cc1ccccc1,"inconclusive: 20 µM [inhibitor, partial curve, poor fit]"
17,CN(C(=O)COC(=O)c1ccc2c(c1)OCO2)c1c(N)n(Cc2ccccc2)c(=O)[nH]c1=O,inactive
18,CC1=CC[C@@H](COc2ccccc2)O[C@@]2(C1)C(=O)N(Cc1ccccc1C(F)(F)F)c1ccccc12,inactive
19,O=C(CN1CCN(S(=O)(=O)c2ccc(F)cc2)CC1)Nc1cccc(C(F)(F)F)c1,"inconclusive: 35.5 µM [inhibitor, single point]"
20,Cc1cccc(NC(=O)CSc2nccn2Cc2ccco2)c1,"inconclusive: 5.62 µM [activator, single point]"
21,Nc1nccc(NCCSCc2ccccc2)n1,"inconclusive: 10 µM [inhibitor, partial curve, poor fit]"
22,COC(=O)CNC(=O)CN1C(=O)N(c2ccccc2)C(N(O)C(=O)Nc2ccccc2)C1(C)C (configuration not stated),"inconclusive: 11.2 µM [activator, partial curve, poor fit]"
23,CCOc1ccc(C(c2c(NC(=O)c3ccccc3)sc(C)c2C)N2CCN(C)CC2)cc1 (configuration not stated),"inconclusive: 35.5 µM [inhibitor, single point]"
24,COc1ccc(CC(=O)NNC(=O)c2ccco2)cc1,"inconclusive: 35.5 µM [activator, single point]"
